# Taken from: PubChem BioAssay AID504808 (Drosophila RNAi Screening Center, 2011)
# Assay: 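Chromatin factors that keep E2F targets switched off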 (primary screen)
# System: Drosophila S2 cells
# Reagent: long dsRNA against Drosophila genes
# Detection: 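Dual luciferase plate measurements; E2F-specific signal taken as firefly over Renilla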
# Reading the numbers: E2F firefly: higher = more E2F reporter activity; Renilla normaliser: higher = more normaliser reporter signal
# Call rule: 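Called active if the normalised E2F reporter went up by over 50%; the cutoff is arbitrary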
# In all, the deposit lists about 21,000 reagents; this is a random part of those with a known target gene and a result. In the full data, 18 (0.084%) got an active call. 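Raw counts without plate normalisation, one of two replicates; the ratio scores behind the calls were not deposited.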 Reagents against one gene are numbered here. A plus sign joins genes that one reagent is predicted to hit. Not stated in the record: the amount of reagent, the time to read-out.
target,reagent no.,"E2F firefly, rep 1","Renilla normaliser, rep 1",call
CG15773 (GeneID 31494),1,73961,4829,inactive
Alg1 (GeneID 42146),1,63002,3586,inactive
CG13101 (GeneID 34221),1,85420,3478,inactive
CG31343 (GeneID 326133),1,73905,3275,inactive
CG9338 (GeneID 35357),1,90357,3781,inactive
CG10939 (GeneID 44155),1,84654,3950,inactive
GNBP3 (GeneID 39020),1,92620,3954,inactive
CG42703 (GeneID 10178828),1,1.21e5,4839,inactive
CG32111 (retired record) (GeneID 317859),1,1.40e5,2164,inactive
mRpS17 (GeneID 37872),1,99632,4513,inactive
CG17574 (GeneID 36415),1,1.02e5,4182,inactive
orb (GeneID 42752),1,44815,3426,inactive
CG13024 (GeneID 39880),1,1.61e5,7948,inactive
PH4alphaNE3 (GeneID 326114),1,1834,780,inactive
CG34015 (GeneID 3885570),1,84015,2626,inactive
CG15905 (GeneID 37257),1,1.64e5,5393,inactive
CG8441 (GeneID 36792),1,85553,3806,inactive
CG30338 (GeneID 246548),1,1.38e5,5239,inactive
CG3528 (GeneID 33436),1,1.68e5,5504,inactive
CG15456 (GeneID 50123),1,1.34e5,5664,inactive
Alg-2 (GeneID 3355106),1,94166,4830,inactive
IntS10 (GeneID 38444),1,1.02e5,4107,inactive
Prosalpha3T (GeneID 43679),1,1.11e5,6972,inactive
CG12983 (GeneID 40319),1,1.31e5,7187,inactive
Obp47b + CG7741,1,1.09e5,4328,inactive
CG3163 (GeneID 37836),1,81957,3213,inactive
Polr2G (GeneID 261631),1,55966,199,inactive
fliI (GeneID 33110),1,54506,3339,inactive
CG31924 (GeneID 319030),1,1.68e5,5650,inactive
pon (GeneID 31394),1,49246,3671,inactive
CG42694 (GeneID 10178792),1,1.25e5,4785,inactive
CG10801 (GeneID 31314),1,1.15e5,5075,inactive
hb (GeneID 41032),1,77397,4084,inactive
CG14785 (GeneID 31094),1,1813,1052,inactive
Osi9 (GeneID 40763),1,52559,3695,inactive
CG42245 + MEP-1,1,1.43e5,3975,inactive
CG42245 + MEP-1,2,78840,3618,inactive
Mical (GeneID 41225),1,1.23e5,5735,inactive
Mical (GeneID 41225),2,1.22e5,5502,inactive
Mical (GeneID 41225),3,1.15e5,6790,inactive
Mical (GeneID 41225),4,1.32e5,7694,inactive
CG42789 (GeneID 10178793),1,53513,3296,inactive
CG12920 (GeneID 36052),1,1.44e5,4953,inactive
N (GeneID 31293),1,1.19e5,6216,inactive
Oda (GeneID 36307),1,96665,4128,inactive
CG31041 (GeneID 318567),1,87773,2617,inactive
CG3253 (GeneID 37861),1,83842,3340,inactive
Or94a (GeneID 42711),1,1.18e5,5971,inactive
CG12520 (GeneID 39466),1,1.31e5,6612,inactive
CG1603 (GeneID 35683),1,74026,3350,inactive
CG3918 (GeneID 31585),1,5019,872,inactive
CG17571 (GeneID 35409),1,1.07e5,4702,inactive
CG17571 (GeneID 35409),2,1.03e5,4027,inactive
NPFR (GeneID 40754),1,1.42e5,6146,inactive
und (GeneID 34294),1,78894,3436,inactive
fid (GeneID 43148),1,1.08e5,6189,inactive
fid (GeneID 43148),2,90074,5714,inactive

Only “Renilla normaliser, rep 1”, for 8 of the entries above:
CG13101 (GeneID 34221): 3478
CG31343 (GeneID 326133): 3275
CG9338 (GeneID 35357): 3781
CG10939 (GeneID 44155): 3950
GNBP3 (GeneID 39020): 3954
CG42703 (GeneID 10178828): 4839
CG32111 (retired record) (GeneID 317859): 2164
mRpS17 (GeneID 37872): 4513
